Data published in patent US20210171604A1, “PEPTIDES FOR THE TREATMENT OF TYPE 2 DIABETES” (YISSUM RESEARCH DEVELOPMENT COMPANY OF THE HEBREW …, priority 2017, published 2021).
The star is where a group is joined. Myristoyl = CCCCCCCCCCCCCC(=O)*

Test system: obese diabetic mice (db/db)
Test: Blood glucose response of obese diabetic (db/db) mice to peptide treatment
Type: in vivo
Conditions: mean, n=3
Experimental: ACD-004 was tested for its effect on hyperglycemia in obese diabetic mice (db/db).
Protocol: Mice (n=3) were kept on normal, unlimited diet. Prior to peptide treatment, baseline measurements of blood glucose and body weight were taken every ˜3 weeks through a period of 2.5 months (see time points (−1)-(−4) in Table 3 below). Injections of the peptide (intraperitoneally, ˜35 mg/kg) started on time point 0 and continued on time points 1 and 2, twice a day. Blood glucose and body weight were measured at the indicated days.
The results, summarized in Table 3, are expressed as mean % change in blood glucose compared to the first baseline measurement (time point (−4)).
Mice (n=16) were kept on normal, unlimited diet. Injections of the peptide (i.p., 20 mg/kg, n=9) or vehicle (i.p., n=7) started at 3-4 m of age (time point ‘0’) and continued for 3 days, once a day. In a similar experiment the peptide […] were injected to mice with severe diabetes for 7 days.

In the case of “Myristoyl-GRNFQKGQVTR-NH2 [ACD-004, myristoylated, C-terminally amidated peptide derived from h-HO-1]”, the “Body Wt.” value (ACD-004 i.p. ~35 mg/kg twice a day at time points 0-2, time point 3, age 18.3 wks) is reported as 54 g, the “Body Wt.” value (ACD-004 i.p. ~35 mg/kg twice a day from time point 0, time point 1, age 17.9 wks) is reported as 55.3 g and the “Body Wt.” value (ACD-004 i.p. ~35 mg/kg twice a day from time point 0, time point 2, age 18.1 wks) is reported as 54 g.
